Laboratory results from PubChem BioAssay AID2685 (National Center for Advancing Translational Sciences (NCATS), 2010).
The other results are listed elsewhere or left out. The main result of the screen is listed elsewhere. These columns were measured beside it and carry no call. Compounds called inactive in the main read-out are mostly missing here. Potencies come from curve fits of mixed quality, noted in brackets.

Assay: qHTS Assay for Lipid Storage Modulators in Drosophila S3 Cells;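 for cell number change: cells counted by Cell Tracker Red CMTPX staining in the red channel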
Details: BODIPY lipid droplet fluorescence, 18-24 h; for cell number change: measured here: cell count max response, cells fed with added oleic acid
Summary of the method: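 Drosophila S3 cells loaded with oleic acid (400 uM, as added) and compounds at several concentrations; lipid droplets imaged by 488-nm laser-scanning cytometry, 500–530 nm intensity and object ratio to cell channel. Percent activity normalized to 20 uM Triacsin C.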

[1] = measured here: lipid fluorescence (Fed channel) AC50, cells fed with added oleic acid
[2] = measured here: cell number channel AC50, cells fed with added oleic acid

SMILES	cell number change [%]	AC50 [1]	AC50 [2]
CCN(CCCNC(=O)CNC(=O)c1nn(-c2ccc(OC)cc2)c(=O)c2ccccc12)c1cccc(C)c1	-3.6	0.231 µM [falling, full curve, poor fit]	–
CCCCCNC(=O)c1cc(S(=O)(=O)N2CCCCC2)ccc1F	-1.16	0.0651 µM [falling, full curve, poor fit]	–
Brc1ccc(C[n+]2ccccc2)cc1	–	29.1 µM [rising, single point]	–
COCCNC(=O)CN(C(=O)Cn1nnc2ccccc21)c1ccc(C)cc1	14.9	0.184 µM [rising, full curve, poor fit]	–
Cc1ccc(NC(=O)COC(=O)CC2CCCC2)cc1Cl	-52	29.1 µM [falling, single point]	23.1 µM [falling, single point]
Cc1ccc(-c2cc(C(=O)NCc3ccc4c(c3)OCO4)no2)cc1	–	2.31 µM [falling, partial curve]	–
Cc1ccc(C(C)C)cc1OCC(=O)NNC(=O)Nc1ccccc1	-37.4	–	29.1 µM [falling, single point]
O=C1CC(N2CCC(c3nc4ccccc4s3)CC2)C(=O)N1Cc1ccccc1 (stereo not drawn)	59.2	–	1.84 µM [rising, full curve]
Cc1ccc(C(=O)NNC(=O)CSc2nnc(-c3ccncc3)n2-c2ccc(C)cc2)cc1	-24.7	29.1 µM [falling, single point]	–
COc1ccc(S(=O)(=O)Nc2ccccc2C(=O)NCc2cccnc2)cc1OC	9.21	–	–
CC1(C)SC(=S)N(Cc2ccc3c(c2)OCO3)C1N(O)C(=O)NC1CCCCC1 (stereo not drawn)	-70.3	–	1.64 µM [falling, partial curve]
Cc1cc(C)n(-c2nc(C(=O)O)cs2)n1	–	0.731 µM [rising, single point]	–
N=C1SC(CC(=O)Nc2ccccc2[N+](=O)[O-])C(=O)N1c1ccccc1 (stereo not drawn)	0.815	–	0.13 µM [falling, full curve, poor fit]
CCCc1nnc(SCC(=O)N2CCCCC2C)n1CCOC (stereo not drawn)	4.11	0.0259 µM [rising, full curve, poor fit]	–
O=C(Cn1ccc2ccccc2c1=O)NCCC(=O)N1CCCCC1	17.5	29.1 µM [rising, single point]	–
CC(C)[C@H](NC(=O)c1c(F)cccc1F)C(=O)N1CCN(c2ccc(F)cc2)CC1	14.4	6.51 µM [rising, single point]	–
O=C(N/N=C/c1cccc(O)c1)NC1CCCCC1	-6.5	3.26 µM [falling, single point]	–
O=C(N/N=C\c1c(O)ccc2ccccc12)c1cncc(Br)c1	-97.6	20.6 µM [falling, single point]	–
COC(=O)C1=C(C)N(c2ccc(F)cc2)/C(=C/c2ccc(O)cc2)C1=O	13.4	29.1 µM [rising, single point]	–

2 of the compounds above, as comma-separated lines:
SMILES,cell number change [%],AC50 [1],AC50 [2]
CCCCCNC(=O)c1cc(S(=O)(=O)N2CCCCC2)ccc1F,-1.16,"0.0651 µM [falling, full curve, poor fit]",–
Brc1ccc(C[n+]2ccccc2)cc1,–,"29.1 µM [rising, single point]",–

Further structures:

SMILES	cell number change [%]	AC50 [1]	AC50 [2]
N=C1/C(=C\c2ccc(SCc3ccccc3)o2)C(=O)N=C2SC(CC(=O)N3CCOCC3)=NN12	13.2	29.1 µM [rising, single point]	–
C=CCNS(=O)(=O)c1ccc(OC)c(C)c1	-0.364	–	–
Cc1c(Cl)cccc1NC(=S)NC1CCN(Cc2ccccc2)CC1	1.2	0.116 µM [rising, full curve, poor fit]	–
Cc1cc(Cn2nc(C(=O)NCc3cccc(C(F)(F)F)c3)cc2-c2ccccc2)on1	-24.4	16.4 µM [falling, partial curve, poor fit]	–
O=C(COc1ccc(S(=O)(=O)N2CCCC2)cc1Cl)NCc1cccnc1	-1.45	6.51 µM [rising, single point]	–
Cc1nn(C)c(C)c1S(=O)(=O)N1CCCC(C(=O)NCC2COc3ccccc3O2)C1 (stereo not drawn)	-17.7	5.8 µM [falling, partial curve, poor fit]	–
COc1cccc(CNC(=O)COC(=O)c2cccc(S(=O)(=O)N3CCN(C(C)=O)CC3)c2)c1	10	2.06 µM [rising, partial curve, poor fit]	–
Cc1cc(C)cc(NC(=O)COC(=O)c2n[nH]c3ccccc23)c1	-28.8	2.31 µM [falling, partial curve, poor fit]	3.66 µM [falling, single point]
O=C(NCCN1CCN(C(=O)c2cccc([N+](=O)[O-])c2)CC1)C(=O)NCc1ccc(Cl)cc1	–	29.1 µM [falling, single point]	–
COc1ccc(N(CC(=O)Nc2ccccc2C(=O)NCC(C)C)S(C)(=O)=O)cc1	–	2.91 µM [rising, partial curve, poor fit]	–
CCCCC(=O)Nc1ccc2c(c1)C(=O)NC2=O	-7.62	7.31 µM [rising, partial curve, poor fit]	–
COc1ccccc1CNC(=O)COC(=O)c1cccc(S(=O)(=O)N2CCOCC2)c1	–	16.4 µM [falling, single point]	–
CC1(C)CC(=O)C2=C(C1)Nc1ncnn1C2c1ccccn1 (stereo not drawn)	-4.06	29.1 µM [falling, single point]	0.731 µM [falling, full curve, poor fit]
O=C(CSCCO)Nc1cc(C(F)(F)F)ccc1Cl	-1.48	14.6 µM [rising, single point]	–
CCn1cc(CCC(=O)O)c(C)n1	74.6	6.51 µM [falling, single point]	6.51 µM [falling, single point]
CCOC(=O)CN1C(=O)SC(CC(=O)Nc2nccs2)C1=O (stereo not drawn)	4.69	–	0.651 µM [falling, single point]
CCOc1ccc(S(=O)(=O)NCC(=O)OCc2nnc(-c3ccccc3)o2)cc1	14	–	–
O=C1CSC(c2ccccc2F)N1c1cc(Cl)ccc1O (stereo not drawn)	109	18.4 µM [rising, partial curve]	29.1 µM [rising, single point]
Cc1ccc(C(=O)OCC(=O)N2CCCc3ccccc32)cc1C	57.2	0.00517 µM [falling, full curve, poor fit]	14.6 µM [rising, partial curve]
